Experimental findings from paper PMC7819943, “Rice protein-binding microarrays: a tool to detect cis-acting elements near promoter regions in rice” are described below.

By UniProt entry, the sequences of proteins in these tests, tags left out.
UniProt Q0JBA9, entry or part of it: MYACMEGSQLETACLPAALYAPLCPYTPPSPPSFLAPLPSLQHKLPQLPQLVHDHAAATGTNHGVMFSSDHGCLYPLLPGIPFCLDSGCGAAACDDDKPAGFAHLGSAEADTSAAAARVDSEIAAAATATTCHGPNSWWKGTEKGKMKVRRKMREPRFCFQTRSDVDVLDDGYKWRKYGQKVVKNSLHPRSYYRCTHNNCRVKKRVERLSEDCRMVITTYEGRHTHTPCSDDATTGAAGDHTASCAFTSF

Some of the results follow.

The target of the test is OsWRKY34 (Oryza sativa, UniProt Q0JBA9 1-250). The experiment in a line: protein-binding microarray (RPBM); PBS, 2% BSA, 51.3 ng/ul salmon testes DNA, 50 uM zinc acetate, 200 nM TF, 25 C, 1 h; high values mean tight binding. The settings on record: protein: recombinant; tags: N-terminal polyhistidine and DsRed monomer fusion (pET32a); label: CyDye5-dUTP incorporated in the synthesized complementary strand; 3' TTTTT single-stranded linker to array surface; dsDNA, one strand shown. In outline: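 Transcription factors were each fused at the N-terminus to a polyhistidine tag plus DsRed and expressed in E. coli BL21-CodonPlus before Ni–NTA purification. Binding to a double-stranded custom Agilent array was carried out with 200 nM protein at 25 °C for 1 h in PBS, 2% BSA, salmon testes DNA and 50 µM zinc acetate. The binding signal is per-feature fluorescence intensity, in arbitrary units, on an Axon 4000B scanner.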
In the case of “TGTCGGTGCAGGAGGCGGTGGAGGGGAGCAGGCTGTACATCGGAGTCACCTAGTGCAG”, the binding signal was 10600 fluorescence intensity (a.u.).

In the case of “AATACATCTTCTCAAAATTTTTCTAGTAACATGCAAACAACGGAGTCACCTAGTGCAG”, the binding signal is 8540 fluorescence intensity (a.u.).

As for “TTACCTCCACTATTATCACTAGCTTGTTCCTATTCTCTGGCGGAGTCACCTAGTGCAG”, the binding signal was 8220 fluorescence intensity (a.u.).

Consider “TACCTGATCAACTTTGACTAATTTTATCCATGTCATTCAGCGGAGTCACCTAGTGCAG”, for which the binding signal was 9490 fluorescence intensity (a.u.).

With “ACGTGTCACGGCTCATGTGGAATATAGTTTGTGGGATTTTCGGAGTCACCTAGTGCAG”, the binding signal was 8150 fluorescence intensity (a.u.).

“GATTCAGTAGTTTGGCTCTATCCAGGTTCCAGCACCATCACGGAGTCACCTAGTGCAG”: the binding signal is 10700 fluorescence intensity (a.u.).

For the sequence “GCGCCGAACGCTCCCTCGTCTCGTCTGCTACCTCTCGCTCCGGAGTCACCTAGTGCAG”, the binding signal is 9160 fluorescence intensity (a.u.).

“GGTTCGATCTCCGGTCCGGTTTTTTTTTTTACTATGCCGACGGAGTCACCTAGTGCAG”: the binding signal was 8340 fluorescence intensity (a.u.).

“AGTCATCCAGTCACCGCCTAGGCCCAGTAACCAATGGTAGCGGAGTCACCTAGTGCAG”: the binding signal is 9240 fluorescence intensity (a.u.).

For the sequence “CGTTCAACAACGACACTGTGCATGATTCGATTCTCCTACCCGGAGTCACCTAGTGCAG”, the binding signal was 9000 fluorescence intensity (a.u.).

As to “GTTGTGTTACATGATTGTCACTTTGGGCCATTAAACAACGCGGAGTCACCTAGTGCAG”, the binding signal is 8420 fluorescence intensity (a.u.).

Take “AGATGGATGCTCTGCCCGCCGCCCTACCACCCTCTGCCATCGGAGTCACCTAGTGCAG”: the binding signal was 8030 fluorescence intensity (a.u.).

With “AGAACATGGCCATGCCACATATTGCCATCGCTCCATCGCTCGGAGTCACCTAGTGCAG”, the binding signal is 9200 fluorescence intensity (a.u.).

For “TAAACCCAAGCACGCAGCACACGCTCTCCATTCCATTCCCCGGAGTCACCTAGTGCAG”, the binding signal is 8220 fluorescence intensity (a.u.).

As for “CATCCCTTCTTGTCTTCAAATACTGTCATCTCGATTTGGTCGGAGTCACCTAGTGCAG”, the binding signal was 9390 fluorescence intensity (a.u.).

Consider “CGCCGCCTCATCCTCGTCGTCCCGTCAACGCCACCTCACCCGGAGTCACCTAGTGCAG”, for which the binding signal was 10800 fluorescence intensity (a.u.).

Turning to “CCTCCCTTGCACGGTGCTGCCATTCTGGGTGCATGCTTAGCGGAGTCACCTAGTGCAG”, the binding signal was 8120 fluorescence intensity (a.u.).

On to “TTTCCTTCTTTTTATTTTTTTGATAATTTTATCCTCTTATCGGAGTCACCTAGTGCAG”, for which the binding signal is 9210 fluorescence intensity (a.u.).

As to “GCGCATATGGGCGCCCCATTTTTTTCGCCGCATCAGGCGCCGGAGTCACCTAGTGCAG”, the binding signal is 9760 fluorescence intensity (a.u.).

For the sequence “GCCTGCCCACGAGTCCCGCACTAATCGATGTACCCCTTCGCGGAGTCACCTAGTGCAG”, the binding signal was 8230 fluorescence intensity (a.u.).

“CTGCCTTTGTTTCTGCAGTTTCCACTCTCTGACTTTAATACGGAGTCACCTAGTGCAG”: the binding signal is 13100 fluorescence intensity (a.u.).

For the sequence “TTGTCTGTGTTCTTGCTGTCTCTTCTTCTCCTACTTCCTCCGGAGTCACCTAGTGCAG”, the binding signal was 12000 fluorescence intensity (a.u.).

As for “TGTAGCTTTCTAATGTTGTTTCTGTTCTAAAACCACAGACCGGAGTCACCTAGTGCAG”, the binding signal is 8650 fluorescence intensity (a.u.).

For “TTGTTATTTTTCTTTTTTTTCTCTATGTGGATTTGTAGTACGGAGTCACCTAGTGCAG”, the binding signal was 8610 fluorescence intensity (a.u.).

“ACACATGTCGTGGTCTCTTCTCCTGTTGCCTCTAAATTAACGGAGTCACCTAGTGCAG”: the binding signal is 8600 fluorescence intensity (a.u.).

Take “ACCCGATACCAAATCACAAAGCATACCTTTCTCAGCCTTTCGGAGTCACCTAGTGCAG”: the binding signal is 8130 fluorescence intensity (a.u.).

Consider “ACCATTAATACTTTGGTCTACGTATTACACTCACGTAATACGGAGTCACCTAGTGCAG”, for which the binding signal was 8230 fluorescence intensity (a.u.).

Consider “CTCCCACGGCCTCTCCTGGTCCACGTGTACCAGCCGCAAACGGAGTCACCTAGTGCAG”, for which the binding signal is 8040 fluorescence intensity (a.u.).

In the case of “AGAAGCAAGCAGAGAGAGAGAGAGGGAGAGGGAGGGGTGGCGGAGTCACCTAGTGCAG”, the binding signal was 8630 fluorescence intensity (a.u.).

For “TCTAGTGCCTCGTCTTTTGTCCATCTCCACCATCCACTGTCGGAGTCACCTAGTGCAG”, the binding signal was 8100 fluorescence intensity (a.u.).

On to “CTCCAAATCATCTATAGCCAATGTACTTATTCCATCCGTTCGGAGTCACCTAGTGCAG”, for which the binding signal is 8480 fluorescence intensity (a.u.).

Consider “ATCGCGCCCCGTCCAGCCACCACGAGTCATCTCATCTCATCGGAGTCACCTAGTGCAG”, for which the binding signal was 11600 fluorescence intensity (a.u.).

With “TCTTTCCTGTTTCCGCTTGGTTTTCCGGTGTTTATTTTGTCGGAGTCACCTAGTGCAG”, the binding signal was 14200 fluorescence intensity (a.u.).

With “TTGATGTATGTTGGCTTGTATGTTGATCTTGTGTCTTGATCGGAGTCACCTAGTGCAG”, the binding signal is 10400 fluorescence intensity (a.u.).

In the case of “GAGAAAATAGCTAGGGGTAGGGGAGGAAAAACATACATGTCGGAGTCACCTAGTGCAG”, the binding signal is 8700 fluorescence intensity (a.u.).

As to “CCTTCGTTTATTTTCTAATCTCAATCCTACTTCTATTTTCCGGAGTCACCTAGTGCAG”, the binding signal is 9980 fluorescence intensity (a.u.).

“AGCATTTTTATCCATCTCGTGTACGTGCCGGCGCCGCCGTCGGAGTCACCTAGTGCAG”: the binding signal is 8090 fluorescence intensity (a.u.).

Consider “TGGTGACAATCTTTCATTTTTTATTTCAGTGCTCATTTTGCGGAGTCACCTAGTGCAG”, for which the binding signal was 8190 fluorescence intensity (a.u.).

As to “AGGTATCAGTTCCAGGCTACTTCTTGGATTCCAGTTCATACGGAGTCACCTAGTGCAG”, the binding signal was 11000 fluorescence intensity (a.u.).

As for “CTGGATTCCATCTTGTATGCCGTTTTTCGACGATTTTTTTCGGAGTCACCTAGTGCAG”, the binding signal is 8080 fluorescence intensity (a.u.).

As to “TTTTTAGTTCCACAACACTCATTTCCTTTTCTTTGCGTGACGGAGTCACCTAGTGCAG”, the binding signal is 8570 fluorescence intensity (a.u.).

Consider “TGATTCAGCGGTTCTTGTCCAACACATTTAATGCCTCTCCCGGAGTCACCTAGTGCAG”, for which the binding signal is 8870 fluorescence intensity (a.u.).
